Experimental data published in patent publication US20240424119A1, “USE OF POLYPEPTIDE IN RESISTANCE TO ADDICTION AND RELAPSE THEREOF, AND COMPLEX AND POLYPEPTIDE” (SHENZHEN CHENYANG BIOLOGICAL TECHNOLOGY CO., LTD, priority 2021, published 2024).
Results are given in words; binding and its absence hold for the method and conditions named. In cells and extracts the contact can be indirect. Some results given as binding are weak or reduced against the parent protein; the word gives no strength.

Sequences of proteins named here, by UniProt entry; tags and fusion partners are left off. A change or cut given only in a name is not applied to a line headed by its entry. Residues count along the entry.
UniProt Q01097, residues 27-1482: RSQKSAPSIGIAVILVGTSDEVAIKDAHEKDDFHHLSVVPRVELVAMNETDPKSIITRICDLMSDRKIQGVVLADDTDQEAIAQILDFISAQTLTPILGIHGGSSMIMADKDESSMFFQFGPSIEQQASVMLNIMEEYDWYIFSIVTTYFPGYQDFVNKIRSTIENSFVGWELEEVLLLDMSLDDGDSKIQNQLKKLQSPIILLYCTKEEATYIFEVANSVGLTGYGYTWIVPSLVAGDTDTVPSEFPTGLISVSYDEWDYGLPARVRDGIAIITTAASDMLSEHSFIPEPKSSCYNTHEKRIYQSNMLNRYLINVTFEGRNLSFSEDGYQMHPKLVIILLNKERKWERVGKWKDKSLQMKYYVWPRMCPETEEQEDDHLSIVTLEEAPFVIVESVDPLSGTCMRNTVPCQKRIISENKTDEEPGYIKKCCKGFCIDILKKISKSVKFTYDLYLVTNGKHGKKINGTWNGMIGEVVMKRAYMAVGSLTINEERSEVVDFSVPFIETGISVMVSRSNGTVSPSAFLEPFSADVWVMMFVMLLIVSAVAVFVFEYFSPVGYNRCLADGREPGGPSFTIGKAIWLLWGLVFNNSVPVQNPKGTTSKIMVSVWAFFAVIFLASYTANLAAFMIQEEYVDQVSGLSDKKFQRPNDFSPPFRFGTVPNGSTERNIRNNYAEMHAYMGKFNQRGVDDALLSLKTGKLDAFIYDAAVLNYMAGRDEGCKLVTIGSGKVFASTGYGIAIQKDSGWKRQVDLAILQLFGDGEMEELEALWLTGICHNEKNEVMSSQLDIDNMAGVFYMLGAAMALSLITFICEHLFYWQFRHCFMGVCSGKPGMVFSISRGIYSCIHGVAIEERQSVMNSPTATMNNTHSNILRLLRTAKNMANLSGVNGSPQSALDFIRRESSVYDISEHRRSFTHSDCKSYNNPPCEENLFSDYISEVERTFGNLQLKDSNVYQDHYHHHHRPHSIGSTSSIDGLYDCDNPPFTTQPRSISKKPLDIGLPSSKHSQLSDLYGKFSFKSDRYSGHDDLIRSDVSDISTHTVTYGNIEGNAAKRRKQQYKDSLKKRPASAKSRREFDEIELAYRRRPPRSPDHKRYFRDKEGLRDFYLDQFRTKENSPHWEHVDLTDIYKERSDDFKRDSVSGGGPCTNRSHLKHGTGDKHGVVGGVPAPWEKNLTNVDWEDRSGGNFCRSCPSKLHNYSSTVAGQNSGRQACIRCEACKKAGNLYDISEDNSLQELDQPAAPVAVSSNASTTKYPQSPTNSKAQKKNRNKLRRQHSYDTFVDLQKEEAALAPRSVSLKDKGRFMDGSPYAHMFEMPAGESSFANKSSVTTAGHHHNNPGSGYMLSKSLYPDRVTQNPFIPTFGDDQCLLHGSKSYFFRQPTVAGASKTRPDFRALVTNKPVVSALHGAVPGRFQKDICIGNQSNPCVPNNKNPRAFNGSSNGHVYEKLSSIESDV
UniProt P14416: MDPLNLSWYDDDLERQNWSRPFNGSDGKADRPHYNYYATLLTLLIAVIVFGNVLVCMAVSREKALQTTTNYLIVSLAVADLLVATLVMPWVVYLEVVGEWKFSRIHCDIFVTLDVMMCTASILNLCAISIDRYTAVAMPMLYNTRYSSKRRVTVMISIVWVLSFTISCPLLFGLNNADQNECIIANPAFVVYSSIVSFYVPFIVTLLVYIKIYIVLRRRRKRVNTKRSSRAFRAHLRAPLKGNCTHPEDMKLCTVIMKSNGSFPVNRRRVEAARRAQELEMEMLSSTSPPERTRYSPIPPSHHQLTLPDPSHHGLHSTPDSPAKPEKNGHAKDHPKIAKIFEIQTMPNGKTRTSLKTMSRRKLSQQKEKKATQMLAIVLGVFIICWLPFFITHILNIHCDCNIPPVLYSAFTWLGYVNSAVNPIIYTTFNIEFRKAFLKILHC

Molecular target: NR2B subunit of the NMDA receptor, endogenous, from mouse hippocampus tissue (mouse) (UniProt Q01097)
Test: GST pulldown from mouse hippocampus extract, Western blot

binding | Substance
binds | GST fusion protein containing the IL3 region of D2R (GST-D2R-IL3) (from UniProt P14416 211-373)
binds | GST fusion protein containing the KVC region of D2R (GST-D2R-KVC) (from UniProt P14416 211-270)
